Laboratory results as given in PubChem BioAssay AID2685 (National Center for Advancing Translational Sciences (NCATS), 2010).
Some of the results follow. Further columns of the screen follow, without active or inactive calls. Compounds called inactive in the main read-out are mostly missing here. Potencies come from curve fits of mixed quality, noted in brackets.

Experiment: qHTS Assay for Lipid Storage Modulators in Drosophila S3 Cells;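 for cell number change: cells counted by Cell Tracker Red CMTPX staining in the red channel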
Settings: BODIPY lipid droplet fluorescence, 18-24 h; for cell number change: measured here: cell count max response, cells fed with added oleic acid
Outline: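 Drosophila S3 cells got compounds at several concentrations plus oleic acid (400 uM solution). Laser-scanning cytometry with 488 nm excitation read lipid droplets at 500-530 nm and cells at 575-640 nm. Percent activity was relative to 20 uM Triacsin C.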

[1] = measured here: lipid fluorescence (Fed channel) AC50, cells fed with added oleic acid
[2] = measured here: cell number channel AC50, cells fed with added oleic acid

Compound | cell number change [%] | AC50 [1] | AC50 [2]
CN(CC(=O)Nc1ccc(F)cc1)C(=O)CSc1ccc2c(c1)OCCO2 | -22.2 | 0.651 µM [falling, single point] | 
COc1ccc(C2N(Cc3ccccc3)CCN2Cc2ccccc2)cc1[N+](=O)[O-] | -16.4 | 5.8 µM [falling, single point] | 2.91 µM [falling, single point]
O=C1[C@H]2[C@@H](c3ccc(F)cc3)N3C(=O)N(c4cccc(Br)c4)C(=O)[C@@]3(Cc3ccc(Cl)cc3)[C@H]2C(=O)N1C1CCCCC1 | 110 | 0.58 µM [falling, single point] | 20.6 µM [rising, partial curve]
Cc1ccc(NCC(O)C(O)C(O)CO)cc1C (stereo not given) | -31.4 | 23.1 µM [falling, partial curve] | 0.13 µM [falling, full curve, poor fit]
N#Cc1c(N)nc(SCc2ccccc2)c(C#N)c1-c1ccco1 | -28.1 | 18.4 µM [falling, single point] | 
COc1cc(C2C(C#N)=C(N)Oc3cc(O)ccc32)cc2c1OCO2 (stereo not given) | -29 | 0.00461 µM [falling, full curve, poor fit] | 
Cc1ccnc(NC2CCCCC2)c1 | -58.3 |  | 0.517 µM [falling, full curve]
COc1cccc(CC(=O)Nc2cc(S(=O)(=O)N3CCOCC3)ccc2N2CCOCC2)c1 | -10.8 |  | 
Cc1noc(C)c1COc1ccc(C(=O)N2CCN(c3ccccc3O)CC2)cc1 | 0.928 |  | 
CN1C[N+]([O-])=C(c2ccccc2)C1(C)C | 24.9 | 4.11 µM [rising, full curve] | 2.31 µM [rising, full curve, poor fit]
O=C(CCNC(=O)Cn1ccc2ccccc2c1=O)NCCN1CCc2ccccc2C1 | -13.6 | 0.291 µM [falling, full curve, poor fit] | 0.517 µM [falling, full curve]
COC(=O)c1ccc(S(=O)(=O)N2CCCCC2)o1 | -49.1 | 0.259 µM [falling, full curve, poor fit] | 25.9 µM [falling, single point]
Cc1cc(NC(=O)CN2CCN(c3ccccn3)CC2)ccc1Br | 0.354 |  | 
CC(=O)c1cccc(NC(=O)Nc2cnn(Cc3ccc(Cl)cc3Cl)c2)c1 |  | 0.58 µM [rising, single point] | 1.84 µM [rising, partial curve]
COc1ccc(NC(=O)NC(=O)c2ccccc2)cc1 | 3.52 | 6.51 µM [rising, single point] | 
COc1ccc2c(c1)CCC/C2=N/OC(=O)c1ccccc1OC | -40.4 | 29.1 µM [falling, single point] | 3.66 µM [falling, single point]
COc1ccc(NC(=O)CSc2nc(N)c(C#N)cc2C#N)cc1 |  |  | 0.58 µM [rising, full curve]
COC(=O)CN(c1nc(C)c(Cl)c(OC)n1)S(=O)(=O)c1ccc(C)cc1 | 0.636 | 0.092 µM [falling, full curve, poor fit] | 
CCCn1c(SCC(=O)Nc2nnc(CC)s2)nnc1-c1ccco1 | 16.8 |  | 
CCCc1nc(-c2ccccc2O)n(-c2ccccc2)n1 | -25.9 | 25.9 µM [rising, single point] | 

Grouped by structure, the entries above with a cyano group.
Compound | cell number change [%] | AC50 [1] | AC50 [2]
N#Cc1c(N)nc(SCc2ccccc2)c(C#N)c1-c1ccco1 | -28.1 | 18.4 µM [falling, single point] | 
COc1cc(C2C(C#N)=C(N)Oc3cc(O)ccc32)cc2c1OCO2 (stereo not given) | -29 | 0.00461 µM [falling, full curve, poor fit] | 
COc1ccc(NC(=O)CSc2nc(N)c(C#N)cc2C#N)cc1 |  |  | 0.58 µM [rising, full curve]

Following part

Compound | cell number change [%] | AC50 [1] | AC50 [2]
CC(=O)c1ccc(S(=O)c2ccccc2)cc1 (stereo not given) | 3.51 |  | 6.51 µM [falling, single point]
CC(C)c1ccccc1OCCCN1CCCC1 | -6.42 | 2.91 µM [falling, single point] | 
O=C(Nc1nnc(-c2ccc3c(c2)CCCC3)o1)c1ccccc1Cl | 2.93 | 16.4 µM [rising, partial curve] | 
C=CCn1cnc2scc(-c3ccc(OC)cc3)c2c1=O | -18.7 | 18.4 µM [rising, single point] | 0.731 µM [falling, full curve, poor fit]
CCCc1c(C)[nH]c2ccc(C(=O)O)cc2c1=S |  | 3.66 µM [falling, full curve] | 
COC(=O)/C(=C\Nc1ccccc1N)c1ncc(C(F)(F)F)cc1Cl | 67.7 | 18.4 µM [rising, partial curve] | 10.3 µM [rising, partial curve]
CC(=O)N1c2ccccc2C(=O)C1N1CCCCC1 (stereo not given) | -1.16 |  | 
CC(C)(C)NS(=O)(=O)c1ccc(-c2csnn2)s1 |  |  | 0.164 µM [falling, full curve, poor fit]
O=C(O)CCCCNCc1ccccc1 | -73.2 |  | 2.91 µM [falling, full curve]
CCOc1ccc(/C=C/C(=O)OCC(=O)Nc2cccc(S(=O)(=O)N3CCCC3)c2)cc1 | -0.937 |  | 
CC(C)(C)c1ccc(OCCCC(=O)N2CCOCC2)cc1 | -43.3 | 29.1 µM [falling, single point] | 14.6 µM [falling, partial curve]
Cc1c(NC(=O)COC(=O)c2ccc(S(=O)(=O)N3CCOCC3)cc2)c(=O)n(-c2ccccc2)n1C | -24.4 | 0.00461 µM [falling, full curve, poor fit] | 0.00461 µM [falling, full curve, poor fit]
COc1ccccc1CC(=O)N1CCN(c2ccccc2F)CC1 | 9.7 | 29.1 µM [rising, single point] | 
CC(C)(C)n1nc2c(c1NC(=O)Cc1ccc(Cl)cc1)CS(=O)(=O)C2 | -43.6 |  | 2.06 µM [falling, partial curve, poor fit]
Cc1ccnc(NC(=O)c2cccc(NC(=O)CC3SC(N4CCCCC4)=NC3=O)c2)c1 (stereo not given) | 0.188 | 2.31 µM [falling, partial curve, poor fit] | 
Cc1cc(NC(=O)c2noc3c2CCCC3)n(-c2ccccc2)n1 | 20.8 |  | 
Cc1cc(C)n(CC(=O)NCc2ccccc2)c(=O)c1C#N | -1.84 |  | 
CCCNc1nc2c(c(=O)[nH]c(=O)n2C)n1CCc1ccccc1 | 72.2 |  | 
Cc1nc(N)sc1-c1csc(Nc2ccccn2)n1 | 3.12 | 0.00517 µM [rising, full curve, poor fit] | 
Nc1nc2nc(-c3ccc(F)cc3)cc(C(F)(F)F)n2n1 | 3.84 |  | 2.31 µM [rising, partial curve, poor fit]

Compound | cell number change [%] | AC50 [1] | AC50 [2]
Cc1cc(OC(C)C(=O)Nc2ccncc2)ccc1Cl (stereo not given) | -50.8 | 6.51 µM [falling, single point] | 13 µM [falling, partial curve]
CCC(=O)N/C(N)=N/c1nc(C)c2cc(OC)ccc2n1 |  |  | 2.31 µM [rising, partial curve]
CC(=O)OCCc1c(C)nc2nc[nH]n2c1=O |  | 25.9 µM [falling, partial curve] | 
O=C(CN(C(=O)CNS(=O)(=O)c1ccc(F)cc1)C1CCCC1)NCc1ccco1 | 2.56 | 6.51 µM [falling, partial curve] | 
Cc1nn(C)c2ncc(C(=O)c3ccccc3O)cc12 | -22.2 |  | 
COc1ccc(N(CC(O)Cn2c3ccccc3c3ccccc32)S(=O)(=O)c2ccccc2)cc1 (stereo not given) | -3.92 | 0.00411 µM [rising, full curve, poor fit] | 
c1coc(CNC2CCCCCCC2)c1 | -19.8 | 7.31 µM [falling, partial curve, poor fit] | 
O=C(CCn1c(=O)oc2ccc(Cl)cc21)NCCCN1CCOCC1 | -14.2 | 20.6 µM [falling, single point] | 
CCn1nnnc1SCC(=O)NCc1ccco1 | -30.9 | 1.3 µM [falling, full curve, poor fit] | 1.46 µM [falling, full curve]
O=C(Cn1[nH]c(=O)c2ccccc2c1=O)NNC(=O)c1ccccc1 | 11.8 |  | 
O=C(Nc1ccc(Cl)cc1)N[C@@H]1c2c(ccc3ccccc23)OC[C@@H]1CO | 8.91 | 0.146 µM [rising, full curve, poor fit] | 
CN(C)c1ccc(S(=O)(=O)N2CCCCC2)cc1NC(=O)CN1C(=O)NC2(CCCC2)C1=O |  |  | 3.66 µM [rising, partial curve, poor fit]
CCc1ccc(NS(=O)(=O)c2cc3c(cc2C)n(C)c(=O)c(=O)n3C)cc1 | -16.4 | 32.6 µM [falling, single point] | 
Cc1nc(N2CCN(Cc3ccccc3)CC2)nc2c1C(=O)CCC2 |  | 6.51 µM [rising, partial curve, poor fit] | 0.0291 µM [rising, full curve]
CCOc1ccccc1N(CC(=O)N1CCCCCC1)S(C)(=O)=O | -11.4 | 23.1 µM [falling, partial curve, poor fit] | 
CCN1CCc2[nH]c3ccccc3c2C1 | 13.9 | 29.1 µM [rising, single point] | 
COc1ccc(OC)c(NC(=O)CC2(CC(=O)O)CCCC2)c1 | -23.1 | 29.1 µM [rising, single point] | 
CCOc1ccc(S(=O)(=O)N2CCN(S(=O)(=O)c3ccc(C(C)=O)cc3)CC2)cc1 | -12.8 | 2.31 µM [falling, full curve, poor fit] | 
Cc1csc(Sc2nc3c(c(=O)[nH]c(=O)n3C)n2CCCc2ccccc2)n1 | 25.2 | 16.4 µM [rising, partial curve] | 
COc1ccc(CCNC(=O)C2CC(=O)N(c3ccc(C)cc3)C2)cc1 (stereo not given) |  | 20.6 µM [rising, partial curve, poor fit] | 
